From paper PMC9408961

Target: OsASR6-YFP^N (rice (Oryza sativa))
Assay: split reporter; BiFC: OsASR6-YFP^N and OsNCED1-YFP^C co-transformed into rice protoplasts; YFP read after 24 h by confocal microscopy

B1: OsNCED1-YFP^C (enzyme, UniProt Q6YVJ0 81-638)
chain: AKTKTTRTVIATTNGRAAPSQSRPRRRPAPAAAASAASLPMTFCNALEEVINTFIDPPALRPAVDPRNVLTSNFVPVDELPPTPCPVVRGAIPRCLAGGAYIRNGPNPQHLPRGPHHLFDGDGMLHSLLLPSPASSGDDPVLCSRYVQTYKYLVERDAGAPVLPNVFSGFHGVAGMARGAVVAARVLTGQMNPLEGVGLANTSLAYFAGRLYALGESDLPYAVRVHPDTGEVTTHGRCDFGGRLVMGMTAHPKKDPVTGELFAFRYGPVPPFVTYFRFDPAGNKGADVPIFSVQQPSFLHDFAITERYAIFPEIQIVMKPMDMVVGGGSPVGSDPGKVPRLGVIPRYATDESEMRWFEVPGFNIMHSVNAWEEAGGEELVLVAPNVLSIEHALEHMELVHSCVEKVRINLRTGVVTRTPLAAGNFDFPVINPAFLGRRNRYGYFGVGDPAPKIGGVAKLDFDRAGEGDCTVAQRDFGPGCFAGEPFFVADDVEGNGNEDDGYLVCYVHDEATGENRFVVMDARSPDLEIVAEVQLPGRVPYGFHGLFVTQAELQSQHQ
For B1, the binding was “binds”.

No constants are given. Whether binding was seen depends on the method and setting. Binding seen in cells or lysates may run through a third protein. Binding can be weak; no strength is given. Where a sequence is shown, tags or fusion partners need not be part of it.
